Results are given in words; binding and its absence hold for the method and conditions named. Binding seen in cells or lysates may run through a third protein. A result given as binding can be weak or reduced; the word gives no strength. Sequences can lack the tags named with a protein.
How the values were obtained:
[1] = biological target: Chip-V5FLAG Δα7 (Drosophila) (UniProt Q7KVG9); assay: co-IP; Chip-V5FLAG (WT or mutant) coexpressed with SSDP-V5 (WT or mutant) in HEK293T cells
[2] = biological target: Chip-V5FLAG with a double mutation in α7 (Drosophila) (UniProt Q7KVG9); assay: as above

Amino acid sequences for entries named in this document (tags omitted). A change or cut given only in a name is not applied to a line headed by its entry.
UniProt Q7KVG9: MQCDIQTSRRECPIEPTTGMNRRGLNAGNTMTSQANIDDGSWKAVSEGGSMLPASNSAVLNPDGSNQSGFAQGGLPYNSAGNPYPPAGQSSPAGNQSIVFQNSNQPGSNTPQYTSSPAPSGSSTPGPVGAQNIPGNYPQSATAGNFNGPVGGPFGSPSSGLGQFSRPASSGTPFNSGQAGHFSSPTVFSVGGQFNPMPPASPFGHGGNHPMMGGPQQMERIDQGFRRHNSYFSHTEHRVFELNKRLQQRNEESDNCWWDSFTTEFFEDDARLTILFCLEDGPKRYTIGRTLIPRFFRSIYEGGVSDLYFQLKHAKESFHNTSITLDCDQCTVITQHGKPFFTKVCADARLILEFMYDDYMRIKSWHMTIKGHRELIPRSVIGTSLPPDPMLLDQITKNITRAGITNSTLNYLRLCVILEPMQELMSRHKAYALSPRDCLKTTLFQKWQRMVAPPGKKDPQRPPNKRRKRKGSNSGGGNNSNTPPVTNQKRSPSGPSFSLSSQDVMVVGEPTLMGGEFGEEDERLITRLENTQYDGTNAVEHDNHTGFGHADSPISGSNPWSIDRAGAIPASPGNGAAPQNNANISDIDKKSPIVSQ

B1: SSDP-V5 (protein, UniProt Q9VEB9 1-445)
chain: MYGKSKTSAVPSDAQAREKLALYVYEYLLHVGAQKAAQTFLSEIRWEKNITLGEPPGFLHTWWCVFWDLYCAAPERRDQCDHSSEAKAFHDYGFVSSGYGVNGIGPGGPHNAGGPAPSPLGQMPPGGDGGPMGPGGPMGPNFFPNSTMRPSPPTHASSPQPPPSQMMPGQPPFMGGPRYPGGPRPGVRMQGMGNEFNGPPGQPMMPNSMDPTRPGGGMGPMNPRMNPPRGPGGMGPMGYGGPGGMRGPAPGPGGMPPMGMGGAGGRPPQWQPNASAPLNAYSSSSPGNYGPGSNGPPGPGTPIMPSPQDNTQGGPVGGPGDSMYALMKPEFPMGGGPDGGGGGGGPGGMGPMGGGPNSMGPVLNGGGGPDGSGLDGMKNSPANGGPGTPREDSGSGMGDYNLGGFGGPGENDQTESAAILKIKESMHEEAKRFEKDTDHPDYFMP
In the case of B1, the binding [1] is reported as “binds” and the binding [2] is reported as “binds”.

Source: article PMC6800368, “Rotational symmetry of the structured Chip/LDB-SSDP core module of the Wnt enhanceosome” (Proceedings of the National Academy of Sciences of the …, 2019)
